According to the supplement of paper PMC10849652:
The other results are listed elsewhere or left out.

Amino acid sequences for entries named in this document (tags omitted). A change or cut given only in a name is not applied to a line headed by its entry.
UniProt Q9H553: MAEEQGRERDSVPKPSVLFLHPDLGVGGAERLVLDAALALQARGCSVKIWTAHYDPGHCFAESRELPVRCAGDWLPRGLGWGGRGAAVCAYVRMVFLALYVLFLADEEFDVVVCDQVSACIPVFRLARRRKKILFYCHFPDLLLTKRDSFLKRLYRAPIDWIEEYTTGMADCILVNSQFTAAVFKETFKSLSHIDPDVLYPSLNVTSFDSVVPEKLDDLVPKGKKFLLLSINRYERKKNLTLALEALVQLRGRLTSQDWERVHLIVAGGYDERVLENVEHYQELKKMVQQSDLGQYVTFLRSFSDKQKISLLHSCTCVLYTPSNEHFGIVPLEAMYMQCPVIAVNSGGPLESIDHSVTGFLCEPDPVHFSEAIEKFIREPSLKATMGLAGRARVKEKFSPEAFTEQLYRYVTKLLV
UniProt P09972: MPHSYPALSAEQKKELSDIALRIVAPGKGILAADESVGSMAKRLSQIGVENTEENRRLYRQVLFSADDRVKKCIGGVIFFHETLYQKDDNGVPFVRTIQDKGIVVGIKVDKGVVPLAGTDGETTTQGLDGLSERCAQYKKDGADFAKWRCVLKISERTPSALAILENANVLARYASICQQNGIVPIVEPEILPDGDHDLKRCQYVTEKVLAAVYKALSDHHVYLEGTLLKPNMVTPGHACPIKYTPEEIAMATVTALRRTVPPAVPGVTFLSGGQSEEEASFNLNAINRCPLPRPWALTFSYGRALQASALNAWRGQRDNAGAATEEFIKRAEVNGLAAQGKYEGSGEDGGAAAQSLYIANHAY
UniProt Q9Y4W6: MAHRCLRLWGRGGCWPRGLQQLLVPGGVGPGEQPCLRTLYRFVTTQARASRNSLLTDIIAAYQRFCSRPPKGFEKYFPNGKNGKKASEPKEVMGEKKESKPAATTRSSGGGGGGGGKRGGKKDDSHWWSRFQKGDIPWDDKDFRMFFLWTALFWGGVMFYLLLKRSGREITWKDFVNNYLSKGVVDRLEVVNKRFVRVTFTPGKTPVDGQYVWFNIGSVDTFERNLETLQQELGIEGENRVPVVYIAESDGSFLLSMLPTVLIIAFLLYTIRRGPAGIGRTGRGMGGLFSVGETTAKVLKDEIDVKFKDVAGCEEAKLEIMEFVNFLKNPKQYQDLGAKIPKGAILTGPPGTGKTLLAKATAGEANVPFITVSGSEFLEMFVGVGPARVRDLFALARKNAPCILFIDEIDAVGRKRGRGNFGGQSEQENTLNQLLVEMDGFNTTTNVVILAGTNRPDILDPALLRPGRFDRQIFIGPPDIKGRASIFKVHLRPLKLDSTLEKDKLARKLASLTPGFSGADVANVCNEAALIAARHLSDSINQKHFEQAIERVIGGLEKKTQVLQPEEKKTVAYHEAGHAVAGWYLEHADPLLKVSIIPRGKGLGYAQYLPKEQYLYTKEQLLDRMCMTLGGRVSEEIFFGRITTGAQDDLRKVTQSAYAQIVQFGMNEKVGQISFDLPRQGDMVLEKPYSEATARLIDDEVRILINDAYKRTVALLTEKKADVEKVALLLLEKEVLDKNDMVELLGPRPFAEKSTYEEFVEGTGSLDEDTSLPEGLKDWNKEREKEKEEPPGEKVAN
UniProt Q3KRA9: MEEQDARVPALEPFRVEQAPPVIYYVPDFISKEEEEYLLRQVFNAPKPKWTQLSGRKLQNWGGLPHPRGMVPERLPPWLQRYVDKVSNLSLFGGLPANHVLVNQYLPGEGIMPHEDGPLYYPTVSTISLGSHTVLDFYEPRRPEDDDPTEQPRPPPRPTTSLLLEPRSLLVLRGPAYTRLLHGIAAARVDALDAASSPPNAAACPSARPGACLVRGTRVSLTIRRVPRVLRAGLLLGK
UniProt P30566: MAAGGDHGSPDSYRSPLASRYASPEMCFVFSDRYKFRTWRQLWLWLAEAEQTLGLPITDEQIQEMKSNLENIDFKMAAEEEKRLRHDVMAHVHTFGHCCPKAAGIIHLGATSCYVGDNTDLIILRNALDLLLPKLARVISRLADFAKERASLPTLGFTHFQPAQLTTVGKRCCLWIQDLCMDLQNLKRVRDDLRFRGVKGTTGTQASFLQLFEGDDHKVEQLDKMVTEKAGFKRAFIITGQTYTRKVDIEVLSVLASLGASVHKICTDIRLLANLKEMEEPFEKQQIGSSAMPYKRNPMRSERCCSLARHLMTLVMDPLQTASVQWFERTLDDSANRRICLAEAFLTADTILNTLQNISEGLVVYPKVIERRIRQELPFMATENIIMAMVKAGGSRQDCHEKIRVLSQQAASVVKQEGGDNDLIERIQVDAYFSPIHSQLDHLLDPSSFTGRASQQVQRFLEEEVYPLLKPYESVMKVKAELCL
UniProt Q9BV57: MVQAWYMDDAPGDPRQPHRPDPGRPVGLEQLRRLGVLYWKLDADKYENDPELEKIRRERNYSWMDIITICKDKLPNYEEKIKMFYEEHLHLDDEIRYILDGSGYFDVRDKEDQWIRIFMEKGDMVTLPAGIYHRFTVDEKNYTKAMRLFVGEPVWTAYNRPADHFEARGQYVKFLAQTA
UniProt Q53H12: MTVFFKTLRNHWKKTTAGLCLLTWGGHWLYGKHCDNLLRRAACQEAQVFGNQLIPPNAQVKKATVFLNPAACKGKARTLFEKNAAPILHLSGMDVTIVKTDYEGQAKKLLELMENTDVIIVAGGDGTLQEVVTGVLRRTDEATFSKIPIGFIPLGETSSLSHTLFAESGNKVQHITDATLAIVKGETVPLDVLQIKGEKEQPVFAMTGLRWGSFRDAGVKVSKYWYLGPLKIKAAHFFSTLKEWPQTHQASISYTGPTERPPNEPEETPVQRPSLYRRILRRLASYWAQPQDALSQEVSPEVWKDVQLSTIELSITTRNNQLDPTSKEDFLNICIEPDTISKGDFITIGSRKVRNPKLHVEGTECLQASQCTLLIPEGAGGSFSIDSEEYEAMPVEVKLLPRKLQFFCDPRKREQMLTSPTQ
UniProt Q9UM13, whole entry, looked up: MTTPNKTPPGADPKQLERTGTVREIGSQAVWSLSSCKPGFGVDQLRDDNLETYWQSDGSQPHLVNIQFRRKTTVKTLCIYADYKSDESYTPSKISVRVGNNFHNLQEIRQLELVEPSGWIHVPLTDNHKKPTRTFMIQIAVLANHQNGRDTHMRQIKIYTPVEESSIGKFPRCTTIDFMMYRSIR
UniProt P23526: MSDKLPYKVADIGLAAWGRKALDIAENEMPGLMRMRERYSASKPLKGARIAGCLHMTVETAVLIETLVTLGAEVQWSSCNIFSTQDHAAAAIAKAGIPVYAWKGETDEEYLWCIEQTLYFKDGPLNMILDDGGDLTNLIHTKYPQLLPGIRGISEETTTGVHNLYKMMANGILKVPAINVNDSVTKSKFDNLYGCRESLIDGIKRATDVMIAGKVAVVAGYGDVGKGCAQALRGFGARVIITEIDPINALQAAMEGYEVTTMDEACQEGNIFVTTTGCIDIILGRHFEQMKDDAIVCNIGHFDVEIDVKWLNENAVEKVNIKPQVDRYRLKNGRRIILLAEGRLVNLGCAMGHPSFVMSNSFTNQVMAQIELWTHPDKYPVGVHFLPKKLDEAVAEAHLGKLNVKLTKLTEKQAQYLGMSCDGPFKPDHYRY
UniProt Q96Q83: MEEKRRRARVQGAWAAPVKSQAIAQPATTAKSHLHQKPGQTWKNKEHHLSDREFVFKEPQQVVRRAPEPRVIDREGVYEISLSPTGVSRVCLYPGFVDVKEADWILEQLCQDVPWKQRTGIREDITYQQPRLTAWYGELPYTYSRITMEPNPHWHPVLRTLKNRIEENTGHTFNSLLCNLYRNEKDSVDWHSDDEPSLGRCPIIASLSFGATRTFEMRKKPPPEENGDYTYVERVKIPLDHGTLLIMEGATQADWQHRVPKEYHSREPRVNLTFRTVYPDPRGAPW
UniProt Q96BJ3: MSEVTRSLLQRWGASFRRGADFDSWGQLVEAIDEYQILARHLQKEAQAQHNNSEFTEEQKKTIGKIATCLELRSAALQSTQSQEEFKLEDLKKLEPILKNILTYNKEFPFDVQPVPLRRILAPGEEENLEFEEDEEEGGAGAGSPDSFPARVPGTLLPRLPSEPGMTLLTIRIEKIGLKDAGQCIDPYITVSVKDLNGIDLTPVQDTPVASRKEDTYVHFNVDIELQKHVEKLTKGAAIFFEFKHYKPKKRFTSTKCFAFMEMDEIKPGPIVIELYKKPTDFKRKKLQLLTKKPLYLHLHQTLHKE
UniProt Q01433: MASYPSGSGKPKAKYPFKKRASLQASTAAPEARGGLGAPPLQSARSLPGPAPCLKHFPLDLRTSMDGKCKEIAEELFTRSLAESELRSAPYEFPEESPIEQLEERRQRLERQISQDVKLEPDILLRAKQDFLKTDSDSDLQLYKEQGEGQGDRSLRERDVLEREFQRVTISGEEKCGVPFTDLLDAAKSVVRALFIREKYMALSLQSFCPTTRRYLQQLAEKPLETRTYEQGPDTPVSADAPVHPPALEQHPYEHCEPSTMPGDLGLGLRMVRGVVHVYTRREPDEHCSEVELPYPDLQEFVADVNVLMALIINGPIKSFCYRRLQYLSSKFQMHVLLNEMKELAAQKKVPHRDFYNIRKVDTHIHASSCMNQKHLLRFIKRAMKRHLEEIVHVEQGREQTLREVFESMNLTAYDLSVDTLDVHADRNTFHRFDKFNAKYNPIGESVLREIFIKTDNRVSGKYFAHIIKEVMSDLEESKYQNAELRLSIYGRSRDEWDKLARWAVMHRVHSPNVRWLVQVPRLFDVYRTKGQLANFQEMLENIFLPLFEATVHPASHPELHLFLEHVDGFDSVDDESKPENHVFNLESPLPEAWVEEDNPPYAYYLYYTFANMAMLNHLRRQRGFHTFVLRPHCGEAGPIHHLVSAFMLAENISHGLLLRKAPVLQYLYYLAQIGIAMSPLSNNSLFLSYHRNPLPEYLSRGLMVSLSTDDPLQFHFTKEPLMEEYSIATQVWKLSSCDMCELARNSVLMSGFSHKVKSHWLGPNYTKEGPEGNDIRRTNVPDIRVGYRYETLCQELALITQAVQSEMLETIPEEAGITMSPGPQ
UniProt P04075: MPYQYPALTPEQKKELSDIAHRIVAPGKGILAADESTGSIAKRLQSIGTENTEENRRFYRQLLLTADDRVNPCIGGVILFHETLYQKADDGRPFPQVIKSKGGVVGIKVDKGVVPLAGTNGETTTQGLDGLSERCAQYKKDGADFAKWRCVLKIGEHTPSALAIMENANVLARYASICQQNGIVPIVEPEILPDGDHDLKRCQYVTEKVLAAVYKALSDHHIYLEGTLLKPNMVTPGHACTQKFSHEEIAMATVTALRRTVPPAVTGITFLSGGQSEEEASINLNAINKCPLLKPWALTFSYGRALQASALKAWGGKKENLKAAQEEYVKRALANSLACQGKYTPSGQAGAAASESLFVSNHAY

Legend:
Assay in all cases: log2 fold change, soluble protein after heating vs DMSO (PISA); higher = thermal stabilisation; K562 cells, 10 uM, 30 min; active = over 0.2 and 3.5 SD of the protein, either way, in both replicates (recomputed)
saracatinib = compound: CN1CCN(CCOc2cc(OC3CCOCC3)c3c(Nc4c(Cl)ccc5c4OCO5)ncnc3c2)CC1 [saracatinib]
Method in brief: (§1)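 Values are thermal stability changes relative to control samples and are taken from duplicates. They are stated as log2 fold changes. Before quantification by TMTpro 16plex LC-MS/MS with equalised channel sums, K562 cells at 2×10^6 cells/mL were treated with 10 μM compound for 30 min, heated in aliquots for 3 min across 48°C-58°C, pooled, extracted in PBS with 0.5% NP-40 at 4°C, and centrifuged at 21,000xg for 90 min to give the soluble supernatant.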

sotrastaurin = compound: CN1CCN(c2nc(C3=C(c4c[nH]c5ccccc45)C(=O)NC3=O)c3ccccc3n2)CC1 [sotrastaurin]
Method in brief: as §1

alvocidib = compound: CN1CC[C@H](c2c(O)cc(O)c3c(=O)cc(-c4ccccc4Cl)oc23)[C@H](O)C1 [alvocidib]
Method in brief: as §1

Tubastatin A = compound: CN1CCc2c(c3ccccc3n2Cc2ccc(C(=O)NO)cc2)C1 [Tubastatin A]
Method in brief: as §1

[1] = compound: CNC(=O)C1=CC=CC=C1NC2=NC(=NC=C2Cl)NC3=C(C=C(C=C3)N4CCOCC4)OC
Method in brief: as §1

defactinib = compound: CNC(=O)c1ccc(Nc2ncc(C(F)(F)F)c(NCc3nccnc3N(C)S(C)(=O)=O)n2)cc1 [defactinib]
Method in brief: as §1

rucaparib = compound: CNCc1ccc(-c2[nH]c3cc(F)cc4c3c2CCNC4=O)cc1 [rucaparib]
Method in brief: as §1

[2] = compound: CNc1nc(-c2ccc3c(N)n[nH]c3c2)cc(N2C[C@@H](C(=O)NC3CCCCC3)CC[C@H]2C)n1
Method in brief: as §1

encorafenib = compound: COC(=O)N[C@@H](C)CNc1nccc(-c2cn(C(C)C)nc2-c2cc(Cl)cc(NS(C)(=O)=O)c2F)n1 [encorafenib]
Method in brief: as §1

[3] = compound: COC(=O)[C@H](CCSC)NC(=O)C1=C(C=C(C=C1)NC[C@H](CS)N)C2=CC=CC=C2
Method in brief: as §1

[4] = compound: COC1=CC=C(C=C1)CN2C=CC3=C2C=C(C=C3)C(=O)NO
Method in brief: as §1

filanesib = compound: CON(C)C(=O)N1N=C(c2cc(F)ccc2F)S[C@@]1(CCCN)c1ccccc1 [filanesib]
Method in brief: as §1

zotarolimus = compound: CO[C@H]1C[C@@H]2CC[C@@H](C)[C@@](O)(O2)C(=O)C(=O)N2CCCC[C@H]2C(=O)O[C@H]([C@H](C)C[C@@H]2CC[C@H](n3cnnn3)[C@H](OC)C2)CC(=O)[C@H](C)/C=C(\C)[C@@H](O)[C@@H](OC)C(=O)[C@H](C)C[C@H](C)/C=C/C=C/C=C/1C [zotarolimus]
Method in brief: as §1

idasanutlin = compound: COc1cc(C(=O)O)ccc1NC(=O)[C@@H]1N[C@@H](CC(C)(C)C)[C@](C#N)(c2ccc(Cl)cc2F)[C@H]1c1cccc(Cl)c1F [idasanutlin]
Method in brief: as §1

alisertib = compound: COc1cc(Nc2ncc3c(n2)-c2ccc(Cl)cc2C(c2c(F)cccc2OC)=NC3)ccc1C(=O)O [alisertib]
Method in brief: as §1

[5] = compound: COc1cc2nc(-c3cc(F)ccc3O)nc(N[C@@H]3CNC[C@H]3C(C)(C)O)c2cc1OC
Method in brief: as §1

gefitinib = compound: COc1cc2ncnc(Nc3ccc(F)c(Cl)c3)c2cc1OCCCN1CCOCC1 [gefitinib]
Method in brief: as §1

[6] = compound: COc1cccc2cc(-c3nc([C@H]4CC[C@H](C(=O)O)CC4)n4ncnc(N)c34)[nH]c12
Method in brief: as §1

lapatinib = compound: CS(=O)(=O)CCNCc1ccc(-c2ccc3ncnc(Nc4ccc(OCc5cccc(F)c5)c(Cl)c4)c3c2)o1 [lapatinib]
Method in brief: as §1

pictilisib = compound: CS(=O)(=O)N1CCN(Cc2cc3nc(-c4cccc5[nH]ncc45)nc(N4CCOCC4)c3s2)CC1 [pictilisib]
Method in brief: as §1

Measured: log2 fold change

ALG2 (UniProt Q9H553)
inactive: saracatinib -0.046 | sotrastaurin 0.005 | alvocidib -0.072 | Tubastatin A -0.004 | [1] 0.044 | defactinib 0.009 | rucaparib 0.083 | [2] -0.014 | encorafenib 0.041 | [3] -0.008 | [4] 0.02 | filanesib 0.032 | zotarolimus 0.037 | idasanutlin -0.047 | alisertib 0.06 | [5] 0.088 | gefitinib 0.043 | [6] 0.034 | lapatinib -0.024 | pictilisib 0.022

ALDOC (UniProt P09972)
inactive: saracatinib 0.031 | sotrastaurin 0.002 | alvocidib -0.053 | Tubastatin A -0.007 | [1] -0.051 | defactinib 0.003 | rucaparib -0.017 | [2] -0.017 | encorafenib -0.012 | [3] 0 | [4] 0.029 | filanesib -0.019 | zotarolimus -0.001 | idasanutlin 0.003 | alisertib 0.002 | [5] -0.001 | gefitinib 0 | [6] 0.135 | lapatinib 0.001 | pictilisib 0.064

AFG3L2 (UniProt Q9Y4W6)
inactive: saracatinib 0.014 | sotrastaurin 0.033 | alvocidib -0.019 | Tubastatin A -0.084 | [1] -0.002 | defactinib -0.034 | rucaparib -0.03 | [2] -0.02 | encorafenib 0.023 | [3] -0.004 | [4] -0.098 | filanesib -0.074 | zotarolimus -0.029 | idasanutlin 0.072 | alisertib 0.011 | [5] 0.017 | gefitinib -0.013 | [6] 0.036 | lapatinib -0.074 | pictilisib -0.019

ALKBH6 isoform 2 (UniProt Q3KRA9)
inactive: saracatinib 0.069 | sotrastaurin 0.061 | alvocidib 0.069 | Tubastatin A -0.017 | [1] -0.042 | defactinib -0.024 | rucaparib -0.026 | [2] -0.049 | encorafenib -0.024 | [3] -0.006 | [4] -0.106 | filanesib 0.016 | zotarolimus 0.058 | idasanutlin -0.041 | alisertib -0.014 | [5] 0.034 | gefitinib 0.076 | [6] 0.018 | lapatinib 0.005 | pictilisib 0.099

ADSL (UniProt P30566)
inactive: saracatinib 0.04 | sotrastaurin 0.05 | alvocidib -0.005 | Tubastatin A -0.028 | [1] -0.052 | defactinib -0.015 | rucaparib -0.033 | [2] -0.025 | encorafenib -0.019 | [3] 0.033 | [4] 0.02 | filanesib -0.033 | zotarolimus -0.031 | idasanutlin 0.009 | alisertib -0.04 | [5] 0 | gefitinib 0.006 | [6] 0.066 | lapatinib 0 | pictilisib 0.016

ADI1 (UniProt Q9BV57)
inactive: saracatinib -0.255 | sotrastaurin -0.07 | alvocidib -0.059 | Tubastatin A -0.138 | [1] 0.064 | defactinib -0.045 | rucaparib -0.051 | [2] -0.068 | encorafenib -0.012 | [3] 0.16 | [4] -0.176 | filanesib 0.084 | zotarolimus -0.03 | idasanutlin -0.007 | alisertib -0.001 | [5] 0.087 | gefitinib 0.021 | [6] 0.011 | lapatinib -0.067 | pictilisib 0.121

AGK (UniProt Q53H12)
inactive: saracatinib 0.058 | sotrastaurin 0.046 | alvocidib -0.002 | Tubastatin A -0.049 | [1] -0.001 | defactinib -0.038 | rucaparib 0.027 | [2] -0.037 | encorafenib -0.023 | [3] 0.024 | [4] 0.136 | filanesib -0.075 | zotarolimus 0.051 | idasanutlin -0.02 | alisertib -0.045 | [5] -0.055 | gefitinib 0.034 | [6] 0.012 | lapatinib 0.019 | pictilisib 0.112

ANAPC10 (UniProt Q9UM13)
inactive: saracatinib -0.08 | sotrastaurin -0.072 | alvocidib 0.024 | Tubastatin A 0.076 | [1] 0.026 | defactinib -0.047 | rucaparib -0.168 | [2] 0.042 | encorafenib 0.161 | [3] -0.041 | [4] 0.095 | filanesib -0.007 | zotarolimus -0.056 | idasanutlin 0.026 | alisertib -0.065 | [5] -0.03 | gefitinib 0.025 | [6] -0.039 | lapatinib -0.021 | pictilisib -0.037

ALYREF (UniProt Q86V81)
inactive: saracatinib 0.037 | sotrastaurin 0.011 | alvocidib 0.359 | Tubastatin A 0.02 | [1] 0.048 | defactinib 0.432 | rucaparib 0.292 | [2] 0.063 | encorafenib 0.071 | [3] 0.047 | [4] -0.157 | filanesib 0.311 | zotarolimus -0.036 | idasanutlin 0.145 | alisertib -0.035 | [5] 0.02 | gefitinib -0.062 | [6] -0.095 | lapatinib 0.045 | pictilisib 0.021

AHCY (UniProt P23526)
inactive: saracatinib 0.052 | sotrastaurin 0.03 | alvocidib 0.002 | Tubastatin A -0.029 | [1] -0.039 | defactinib -0.002 | rucaparib -0.025 | [2] -0.006 | encorafenib -0.016 | [3] -0.002 | [4] 0.024 | filanesib -0.044 | zotarolimus 0.007 | idasanutlin -0.007 | alisertib -0.105 | [5] -0.008 | gefitinib -0.002 | [6] 0.045 | lapatinib -0.019 | pictilisib 0.02

ALKBH3 (UniProt Q96Q83)
inactive: saracatinib 0.033 | sotrastaurin 0.017 | alvocidib -0.016 | Tubastatin A -0.034 | [1] -0.08 | defactinib -0.006 | rucaparib 0.006 | [2] -0.068 | encorafenib -0.035 | [3] 0.019 | [4] -0.152 | filanesib -0.001 | zotarolimus -0.065 | idasanutlin -0.002 | alisertib -0.028 | [5] 0.013 | gefitinib -0.038 | [6] 0.026 | lapatinib 0.016 | pictilisib 0.043

Two consecutive records out of the list so far:
ALG2 (UniProt Q9H553)
inactive: saracatinib -0.046 | sotrastaurin 0.005 | alvocidib -0.072 | Tubastatin A -0.004 | [1] 0.044 | defactinib 0.009 | rucaparib 0.083 | [2] -0.014 | encorafenib 0.041 | [3] -0.008 | [4] 0.02 | filanesib 0.032 | zotarolimus 0.037 | idasanutlin -0.047 | alisertib 0.06 | [5] 0.088 | gefitinib 0.043 | [6] 0.034 | lapatinib -0.024 | pictilisib 0.022

ALDOC (UniProt P09972)
inactive: saracatinib 0.031 | sotrastaurin 0.002 | alvocidib -0.053 | Tubastatin A -0.007 | [1] -0.051 | defactinib 0.003 | rucaparib -0.017 | [2] -0.017 | encorafenib -0.012 | [3] 0 | [4] 0.029 | filanesib -0.019 | zotarolimus -0.001 | idasanutlin 0.003 | alisertib 0.002 | [5] -0.001 | gefitinib 0 | [6] 0.135 | lapatinib 0.001 | pictilisib 0.064

Following part:

AIDA (UniProt Q96BJ3)
inactive: saracatinib -0.008 | sotrastaurin -0.031 | alvocidib -0.14 | Tubastatin A 0.027 | [1] -0.044 | defactinib -0.08 | rucaparib -0.036 | [2] 0 | encorafenib 0.025 | [3] 0.039 | [4] 0.005 | filanesib 0.062 | zotarolimus 0.058 | idasanutlin -0.01 | alisertib 0.011 | [5] -0.007 | gefitinib 0.053 | [6] 0.039 | lapatinib -0.036 | pictilisib 0.002

AK2 isoform 2 (UniProt P54819)
inactive: saracatinib 0.015 | sotrastaurin 0.036 | alvocidib 0.015 | Tubastatin A -0.006 | [1] -0.024 | defactinib -0.01 | rucaparib -0.028 | [2] -0.033 | encorafenib -0.038 | [3] 0.031 | [4] -0.002 | filanesib -0.023 | zotarolimus -0.044 | idasanutlin -0.008 | alisertib -0.058 | [5] 0.008 | gefitinib 0.008 | [6] 0.019 | lapatinib -0.028 | pictilisib 0.072

AHNAK (UniProt Q09666)
inactive: saracatinib 0.006 | sotrastaurin 0.021 | alvocidib 0.007 | Tubastatin A -0.008 | [1] -0.024 | defactinib -0.018 | rucaparib 0.021 | [2] -0.098 | encorafenib -0.014 | [3] 0.015 | [4] -0.054 | filanesib 0.172 | zotarolimus -0.015 | idasanutlin 0.016 | alisertib -0.006 | [5] 0.196 | gefitinib 0.017 | [6] 0.007 | lapatinib 0.015 | pictilisib 0.063

AMPD2 (UniProt Q01433)
inactive: saracatinib 0.039 | sotrastaurin 0.038 | alvocidib -0.048 | Tubastatin A -0.047 | [1] -0.05 | defactinib -0.016 | rucaparib -0.032 | [2] -0.033 | encorafenib 0.001 | [3] 0.003 | [4] -0.017 | filanesib -0.089 | zotarolimus -0.008 | idasanutlin -0.055 | alisertib -0.029 | [5] -0.026 | gefitinib 0 | [6] 0.043 | lapatinib 0.007 | pictilisib 0.013

ALDOA isoform 2 (UniProt P04075)
inactive: saracatinib 0.007 | sotrastaurin 0.027 | alvocidib -0.021 | Tubastatin A -0.017 | [1] 0.128 | defactinib 0.026 | rucaparib -0.024 | [2] -0.006 | encorafenib -0.017 | [3] 0.029 | [4] 0.045 | filanesib -0.051 | zotarolimus -0.015 | idasanutlin 0 | alisertib -0.039 | [5] -0.022 | gefitinib -0.02 | [6] 0.058 | lapatinib -0.025 | pictilisib -0.018
